Source: patent US20100291682, “SYSTEM FOR TRANSPOSING HYPERACTIVE RECOMBINANT DERIVATIVES OF MOS-1 TRANSPOSON” (published 2010)
No signal at the amounts used counts as a negative. For some of these results: Where a protein sequence is shown, tags need not be part of it. For some of these results: Construct, isoform or probe ends are uncertain for at least one entry.

Assays:
[1] = molecular target: T1, MBP-Mos-1 transposase (MBP-Tnp) (Drosophila mauritiana) (UniProt Q7JQ07); experiment: competition with a labelled probe; conditions: does not displace labelled ITR3' up to 1500 nM; purified recombinant protein; protein details: N-terminal MBP (pMalC2x)
T1 sequence: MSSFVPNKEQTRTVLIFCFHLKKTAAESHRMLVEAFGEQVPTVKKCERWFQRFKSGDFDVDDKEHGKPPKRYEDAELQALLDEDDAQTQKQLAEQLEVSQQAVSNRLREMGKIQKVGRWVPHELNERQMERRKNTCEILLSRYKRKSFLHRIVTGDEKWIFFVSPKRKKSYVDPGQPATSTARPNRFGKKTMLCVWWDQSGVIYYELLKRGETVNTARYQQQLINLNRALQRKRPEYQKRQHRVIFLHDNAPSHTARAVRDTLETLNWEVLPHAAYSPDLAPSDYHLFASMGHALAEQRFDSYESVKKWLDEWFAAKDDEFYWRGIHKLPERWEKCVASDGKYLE

[2] = molecular target: Maltose binding protein (MBP) (UniProt P0AEX9); experiment: pull-down; conditions: MBP control has no affinity for ITRs; purified recombinant protein; protein details: pMalC2x, New England Biolabs; label: 32P

Sequence: ATAGTGTTTAAAGCTTACT (double strand) [ITRSelex SEQ 44]
- binding result [1]: no binding

Sequence: CGATTACAATTATGAAAACTTTCCT (double strand) [ITRSelex SEQ 42]
- binding result [1]: no binding

Sequence: GAAGAGTTATAACTCAAGAAAACTGAAT (double strand) [ITRSelex SEQ 41]
- binding result [1]: no binding

Sequence: GCGGGTGTGAAAATATGAAATATTCACT (double strand) [ITRSelex SEQ 40]
- binding result [1]: no binding

Sequence: GGAGAAATGGTAGAATAGTTTA (double strand) [ITRSelex SEQ 43]
- binding result [1]: no binding

Sequence: GTCAGTGATGTCACCAACGTATGGAATATCGTAT (double strand) [ITRSelex SEQ 45]
- binding result [1]: no binding

Sequence: TCAGGTGTACAAGTATGAAATGTCGTTT (double strand) [Mos-1 ITR3']
- binding result [2]: no binding
